# Measured values reported in PMC5693111, “Small molecule Photoregulin3 prevents retinal degeneration in the Rho^P23H mouse model of retinitis pigmentosa” (eLife, 2017).
# By UniProt entry, the sequences of proteins in these tests, tags left out.
# UniProt Q9Y5X4: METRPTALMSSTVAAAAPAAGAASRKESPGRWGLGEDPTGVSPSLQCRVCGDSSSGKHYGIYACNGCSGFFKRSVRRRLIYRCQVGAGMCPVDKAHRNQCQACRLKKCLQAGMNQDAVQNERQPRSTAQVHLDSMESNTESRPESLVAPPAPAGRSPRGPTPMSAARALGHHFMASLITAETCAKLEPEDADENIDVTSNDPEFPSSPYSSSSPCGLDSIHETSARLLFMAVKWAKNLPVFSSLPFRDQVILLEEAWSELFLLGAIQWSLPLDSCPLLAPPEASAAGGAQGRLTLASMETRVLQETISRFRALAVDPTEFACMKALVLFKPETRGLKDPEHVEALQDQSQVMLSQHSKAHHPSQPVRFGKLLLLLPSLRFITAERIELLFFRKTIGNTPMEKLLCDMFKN
# UniProt P54845: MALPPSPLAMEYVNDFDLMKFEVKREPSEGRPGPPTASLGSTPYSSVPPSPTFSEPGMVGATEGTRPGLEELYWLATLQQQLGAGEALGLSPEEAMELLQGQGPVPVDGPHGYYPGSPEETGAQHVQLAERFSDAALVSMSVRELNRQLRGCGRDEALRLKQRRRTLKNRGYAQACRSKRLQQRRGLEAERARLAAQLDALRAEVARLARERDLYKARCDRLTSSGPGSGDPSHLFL
# These are yes or no findings as the source states them, for the method shown. In cells and extracts the contact can be indirect. Some entries that bind do so weakly or less than the wild type.
# Target: NR2E3 (Homo sapiens, UniProt Q9Y5X4)
# Test: co-IP; HEK293 cells co-transfected with NR2E3 and NRL, treated with DMSO or 1 uM PR3 for 2 days; lysates (25 mM Tris-HCl pH 7.5, 150 mM NaCl, 1 mM EDTA, 1% Triton X-100, 5% glycerol) immunoprecipitated with anti-Nr2e3 antibody on Dynabeads overnight at 4°C; Western blot with anti-Nrl
substance,measurement,value
NRL (from UniProt P54845 1-237),binding,binds
